Patent US20200397795A1, “PROPHYLACTIC TREATMENT OF VENOUS THROMBOEMBOLISM” (JANSSEN PHARMACEUTICALS, INC., priority 2019, published 2020)
Some of these results come from one statement about several compounds together.

Test system: bleeding events in patients hospitalized for acute medical illness
Assay: MAGELLAN (Study 1): safety, bleeding events and adverse events
Type: in vivo, human
Description: The safety component of Criteria for Evaluation was the primary safety endpoint of incidence of the composite of treatment-emergent major bleeding events and non-major clinically relevant bleeding events observed during treatment and not later than 2 days after the last intake of double-blind study drug.
The primary safety outcome of the study was the treatment-emergent clinically relevant bleeding events, which were a composite of treatment-emergent adjudicated major bleeding events and clinically relevant non-major bleeding events.
The safety analysis was performed on 7998 randomized subjects who received at least one dose of study drug, rivaroxaban (3997 subjects) or enoxaparin (4001 subjects).
The primary safety outcome of the study was the assessment of clinically relevant bleeding events, which are a composite of treatment-emergent adjudicated major bleeding events and clinically relevant non-major bleeding events.

Compound | Pulmonary bleeding site (critical site bleeding), incidence (Day 1 to Day 35) [%] | Retroperitoneal bleeding site (critical site bleeding), incidence (Day 1 to Day 35) [%] | Intracranial bleeding site (critical site bleeding), incidence (Day 1 to Day 35) [%] | Major bleeding events, incidence (Day 10 to Day 35) [%]
O=C(NC[C@H]1CN(c2ccc(N3CCOCC3=O)cc2)C(=O)O1)c1ccc(Cl)s1 [Rivaroxaban, 5-chloro-N-({(5S)-2-oxo-3-[4-(3-oxo-4-morpholinyl)phenyl]-1,3,oxazolidin-5-yl}methyl)-2-thiophenecarboxamide] | < 0.1 | < 0.1 | – | –
Enoxaparin | – | – | < 0.1 | < 0.1
